The target in test [1] is T1, endogenous mouse PrxII (mouse (endogenous in MEFs and BMDMs)), Q61171.
T1 chain: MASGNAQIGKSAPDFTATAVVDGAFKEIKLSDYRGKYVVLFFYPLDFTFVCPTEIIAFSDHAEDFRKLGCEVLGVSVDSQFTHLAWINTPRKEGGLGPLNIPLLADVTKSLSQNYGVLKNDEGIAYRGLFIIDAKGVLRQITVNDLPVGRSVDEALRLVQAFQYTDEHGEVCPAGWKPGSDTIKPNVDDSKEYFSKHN
Description: nonreducing SDS-PAGE with immunoblot. As to conditions: remark: other sources report otherwise.

Sequences of proteins named here, by UniProt entry; tags and fusion partners are left off.
UniProt P09429: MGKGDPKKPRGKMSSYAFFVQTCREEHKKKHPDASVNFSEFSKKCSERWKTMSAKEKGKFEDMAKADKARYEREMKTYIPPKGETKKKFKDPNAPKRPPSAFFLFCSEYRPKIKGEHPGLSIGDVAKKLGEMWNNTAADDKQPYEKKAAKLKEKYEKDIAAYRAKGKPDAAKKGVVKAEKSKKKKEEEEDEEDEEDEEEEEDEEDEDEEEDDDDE

Another test concerns the target purified HMGB1 (UniProt P09429). The test is described as follows: co-IP.
Test [2] addresses T2, endogenous mouse PrxI (mouse (endogenous in BMDMs)), P35700.
T2 chain: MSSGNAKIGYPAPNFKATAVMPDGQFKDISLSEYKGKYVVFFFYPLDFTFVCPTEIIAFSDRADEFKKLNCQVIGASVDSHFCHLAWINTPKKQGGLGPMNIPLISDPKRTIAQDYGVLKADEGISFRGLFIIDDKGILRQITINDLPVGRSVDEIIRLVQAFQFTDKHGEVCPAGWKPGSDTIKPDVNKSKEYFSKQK
The test is described as follows: nonreducing SDS-PAGE with immunoblot. As to conditions: remark: other sources report otherwise.

These are yes or no findings as the source states them, for the method shown. Some results given as binding are weak or reduced against the parent protein; the word gives no strength.

B1: endogenous mouse PrxII, Q61171 1-198 (enzyme)
chain: MASGNAQIGKSAPDFTATAVVDGAFKEIKLSDYRGKYVVLFFYPLDFTFVCPTEIIAFSDHAEDFRKLGCEVLGVSVDSQFTHLAWINTPRKEGGLGPLNIPLLADVTKSLSQNYGVLKNDEGIAYRGLFIIDAKGVLRQITVNDLPVGRSVDEALRLVQAFQYTDEHGEVCPAGWKPGSDTIKPNVDDSKEYFSKHN
Consider B1, for which, in test [1], the binding entry is “binds”.

B2: purified PrxI (enzyme, UniProt Q06830 1-199)
chain: MSSGNAKIGHPAPNFKATAVMPDGQFKDISLSDYKGKYVVFFFYPLDFTFVCPTEIIAFSDRAEEFKKLNCQVIGASVDSHFCHLAWVNTPKKQGGLGPMNIPLVSDPKRTIAQDYGVLKADEGISFRGLFIIDDKGILRQITVNDLPVGRSVDETLRLVQAFQFTDKHGEVCPAGWKPGSDTIKPDVQKSKEYFSKQK
Consider B2, for which, in the test with purified HMGB1, the binding result is reported as “binds”.

B3: endogenous mouse PrxI, P35700 1-199 (enzyme)
chain: MSSGNAKIGYPAPNFKATAVMPDGQFKDISLSEYKGKYVVFFFYPLDFTFVCPTEIIAFSDRADEFKKLNCQVIGASVDSHFCHLAWINTPKKQGGLGPMNIPLISDPKRTIAQDYGVLKADEGISFRGLFIIDDKGILRQITINDLPVGRSVDEIIRLVQAFQFTDKHGEVCPAGWKPGSDTIKPDVNKSKEYFSKQK
B3: the binding result in test [2] is “binds”.

B4: purified PrxII (enzyme, UniProt P32119 1-198)
chain: MASGNARIGKPAPDFKATAVVDGAFKEVKLSDYKGKYVVLFFYPLDFTFVCPTEIIAFSNRAEDFRKLGCEVLGVSVDSQFTHLAWINTPRKEGGLGPLNIPLLADVTRRLSEDYGVLKTDEGIAYRGLFIIDGKGVLRQITVNDLPVGRSVDEALRLVQAFQYTDEHGEVCPAGWKPGSDTIKPNVDDSKEYFSKHN
Consider B4, for which the binding entry with purified HMGB1 is on record as “binds”.

The values above are taken from publication doi:10.1101/258285.
